## Percent effect of library compounds

Amino acid sequences for entries named in this document (tags omitted).
UniProt P9WPC5, whole entry: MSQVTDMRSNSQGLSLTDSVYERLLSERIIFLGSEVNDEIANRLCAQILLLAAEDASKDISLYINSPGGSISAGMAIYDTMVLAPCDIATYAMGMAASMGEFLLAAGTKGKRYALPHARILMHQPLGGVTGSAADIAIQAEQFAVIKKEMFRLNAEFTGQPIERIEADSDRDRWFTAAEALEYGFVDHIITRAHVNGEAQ
UniProt P9WPC3, whole entry partner: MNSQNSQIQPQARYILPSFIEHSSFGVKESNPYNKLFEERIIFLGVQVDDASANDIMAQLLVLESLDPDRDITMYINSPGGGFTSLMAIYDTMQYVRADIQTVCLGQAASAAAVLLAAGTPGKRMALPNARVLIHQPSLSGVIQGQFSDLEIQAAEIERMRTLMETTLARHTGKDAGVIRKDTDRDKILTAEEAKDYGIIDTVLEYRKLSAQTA

Source: ChEMBL document CHEMBL3988442, “University of Dundee, Small-Polar-MMV Screening Library” (2021).

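Protease assay of ClpP1P2, read by the AMC dye that it sets free. Target: ClpP1P2, Mycobacterium tuberculosis (UniProt P9WPC5 and UniProt P9WPC3). Tested at 50 µM. Higher reads as stronger inhibition, judged from the few compounds that gave an IC50. Most other retested compounds had strongly negative values. Of about 69,000 compounds tested this way, about 10 (0.015%) reached 50% or more in at least one test.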

The filed quantity is “Percent Effect” (%). The controls that fix the scale are not given in the record; negative values are as filed. This is an unselected part of the compounds tested.

Compound	Percent Effect
CC(NCCCN1CCCN(C)CC1)C(C)(C)C (stereo not shown)	-0.3539%
CCc1cc(N2CCC(NCCc3nc(C)c(C)s3)CC2)nc(C)n1	-3.858%
CNC(=O)C1CCCN(C(=O)c2ccccc2-n2cc(CN)cn2)C1 (stereo not shown)	-1.385%
Cc1ccc(CN2CC[C@H]3[C@H]2CC(=O)N3c2cccnc2)o1	2.057%
CCCC1(CO)CCCN(Cc2nccs2)C1 (stereo not shown)	-1.182%
CC(C)c1nc(C2CCCN(C(=O)c3ccc4c(c3)OCO4)C2)no1 (stereo not shown)	-14.77%
CN(C)C(=O)NC[C@H]1OC[C@@H]2CCN(Cc3ccoc3)C[C@@H]21	20.25%
N#Cc1c(Cl)nsc1NCc1ccc(N2CCCC(C(N)=O)C2)cc1 (stereo not shown)	-0.3915%
Cc1nccn1CCCC(=O)N1CCN(c2cccnc2)CC1	-4.088%
c1ccc([C@@H]2CN(Cc3cccnc3)C[C@H]2c2cc[nH]n2)cc1	-20.08%
CN(C)CCCN(Cc1ccco1)Cc1ccnn1C1CCCCO1 (stereo not shown)	6.116%
CCC(NC(=O)c1ccc(OC)nn1)c1nc(C(F)(F)F)cs1 (stereo not shown)	-1.241%
CC(C)c1noc(CCCC(=O)N2CCN(C)CC2c2ccccc2)n1 (stereo not shown)	-10.65%
Cc1c[nH]c(C(=O)N2CCC(c3nnc(CN(C)CCO)n3C)CC2)c1	1.078%
O=c1c2sccc2nc2n1CCN(Cc1ccsc1)CC2	-2.728%
CCN1C(=O)C2(CCOCC2)c2cc(NC(=O)c3csnn3)ccc21	6.575%
O=C(c1ccc(-n2ccnc2)cc1)N1CCCC(n2ccnc2)C1 (stereo not shown)	-6.45%
O=C(O)c1ccnc(SCc2ccccc2)c1	17.99%
CC(C(=O)Nc1cccc(Cl)c1SC(F)F)S(C)(=O)=O (stereo not shown)	-5.041%
O=C(Nc1cnccn1)[C@@H]1CCO[C@@H]2CCN(Cc3ccsc3)C[C@@H]21	-0.5196%
O=C(c1ccccc1C(F)(F)F)N1CC[C@@H](N2CCC(O)CC2)[C@H](O)C1	-7.227%
CC(=O)N1CCCn2nc(CNS(=O)(=O)N(C)C(C)C)cc2C1	-17.78%
CNC(=O)CS(=O)(=O)Cc1cc(Cl)c2c(c1)OCCCO2	16.27%
CC(=O)NCCCSC1CCN(c2ccccc2Cl)C1=O (stereo not shown)	-0.4584%
O=C1CC(c2ccccc2F)c2c(n3ccsc3nc2=O)N1 (stereo not shown)	-4.748%
COCc1nc(C(=O)N2CCN(c3nccc(OC)n3)CC2)cs1	0.2373%
CCC(CC)C(=O)NCC1(NC(C)c2ccccc2)CCOCC1 (stereo not shown)	-9.847%
N#Cc1cccc(N2CCCC(CO)(Cc3ccccc3F)C2)n1 (stereo not shown)	-8.819%
Cc1cccc(C)c1-n1nnnc1C1(NCc2ccco2)CCCC1	-6.53%
Cc1cccc(C(=O)N2C[C@@H](OCc3cccnc3)[C@H]3OCCC[C@@H]32)n1	4.304%
Cc1ccc(CN2CC[C@H]3OCC[C@@]3(COCC(=O)N(C)C)C2)s1	12.76%
CCS(=O)(=O)CC(C)N(C)C(=O)COc1ccccc1C#N (stereo not shown)	0.8593%
CC(C)CN1CC[C@@H]2[C@H](CC1)N(C(=O)c1ccccc1)CCS2(=O)=O	-4.049%
O=C(CN1CCN(c2ccnc3c(F)ccc(F)c23)CC1)NC1CC1	0.4421%
CS(=O)(=O)N[C@@H]1CN(C(=O)c2cnccn2)[C@@H]2CCCO[C@@H]21	20.02%
CCNC(=O)[C@H]1CN(Cc2ccccc2)C[C@@H]1C(=O)c1ccccc1	-5.658%
CCc1cnc(N2CCc3cc(C(=O)NC)c(N(C)C)nc3CC2)nc1	-2.974%
Cn1ccnc1COc1ccc(NC(=O)CCC2CCCO2)cc1 (stereo not shown)	-5.338%
Cc1cccc(NC(=O)N2CCN(Cc3nnc(C(C)C)o3)CC2)c1	0.5813%
CC(NC(=O)CCn1cccn1)c1ccc2c(c1)OCCO2 (stereo not shown)	5.91%
CCCNC(=O)CC1OCCc2ccsc21 (stereo not shown)	1.737%
COc1ccc(CN2CC[C@H]3[C@H](CO[C@H]3CNC(=O)N(C)C)C2)cc1	-17.06%
Cc1noc(-c2ccc(-n3ncc(C(=O)O)c3C)nc2)n1	-0.2572%
COCC(=O)NC[C@]12COC[C@H]1CN(c1ncc(F)cn1)C2	-1.581%
COCCN1CCc2ncnc(N(C)C)c2CC1	-7.304%
N#Cc1cccc(C(=O)N2CCc3c(COCC4CC4)cncc3C2)c1	5.943%
CN(CCCO)Cc1cc(Cl)ccc1OCC(O)CN1CCCCCC1 (stereo not shown)	-3.251%
CC(=O)N1Cc2ccccc2C[C@H]1C(=O)N(C)CCc1ccccn1	-10.9%
O=C(Nc1ccccc1)N1CCn2nnc(COc3cccnc3)c2C1	4.941%
CCOc1ccc([C@@H]2N[C@H](c3nccs3)Cc3ccsc32)cc1OC	-12.86%
Cc1ccc(NC(=O)C(C)N2CCCN(c3nccs3)CC2)c(C)c1 (stereo not shown)	21.26%
CCn1cc(C(=O)NCc2cccnc2N(C)Cc2ccccc2)cn1	-10.43%
NCCC(Cc1ccccc1)c1ccco1 (stereo not shown)	3.537%

Repeated from the top, 4 entries:

Compound,Percent Effect
CC(NCCCN1CCCN(C)CC1)C(C)(C)C (stereo not shown),-0.3539%
CCc1cc(N2CCC(NCCc3nc(C)c(C)s3)CC2)nc(C)n1,-3.858%
CNC(=O)C1CCCN(C(=O)c2ccccc2-n2cc(CN)cn2)C1 (stereo not shown),-1.385%
Cc1ccc(CN2CC[C@H]3[C@H]2CC(=O)N3c2cccnc2)o1,2.057%